Values quoted from earlier work as cited in patent US8183227B1, “Compositions, kits and methods for nutrition supplementation” (Chemo S. A. France, priority 2011, dated 2012).
At least one compound was matched to its structure with a doubt left.

Settings: supplementation during pregnancy

**Q.** Which “increase in length of gestation” value does the source give for `CC/C=C\C/C=C\C/C=C\C/C=C\C/C=C\C/C=C\CCC(=O)O` [DHA, docosahexaenoic acid] here?
**A.** about six
